Assay results as given in patent US20210047426A1.

Biological target: Cynomolgus CD123-His (soluble cynomolgus IL3R-alpha) (cynomolgus monkey)
Test: bifunctional ELISA, plate coated with cynomolgus monkey CD123, detection with human CD3-biotin and streptavidin-HRP

- binding: no binding (tested: 1 ug/ml)
B1: Control Bi-Specific Diabody (Control DART) (bispecific antibody)
chain 1: DVVMTQTPFSLPVSLGDQASISCRSSQSLVHSNGNTYLRWYLQKPGQSPKVLIYKVSNRFSGVPDRFSGSGSGTDFTLKISRVEAEDLGVYFCSQSTHVPWTFGGGTKLEIKGGGSGGGGEVQLVESGGGLVQPGGSLRLSCAASGFTFNTYAMNWVRQAPGKGLEWVARIRSKYNNYATYYADSVKDRFTISRDDSKNSLYLQMNSLKTEDTAVYYCVRHGNFGNSYVSWFAYWGQGTLVTVSSGGCGGGEVAALEKEVAALEKEVAALEKEVAALEK
chain 2: QAVVTQEPSLTVSPGGTVTLTCRSSTGAVTTSNYANWVQQKPGQAPRGLIGGTNKRAPWTPARFSGSLLGGKAALTITGAQAEDEADYYCALWYSNLWVFGGGTKLTVLGGGGSGGGGEVKLDETGGGLVQPGRPMKLSCVASGFTFSDYWMNWVRQSPEKGLEWVAQIRNKPYNYETYYSDSVKGRFTISRDDSKSSVYLQMNNLRVEDMGIYYCTGSYYGMDYWGQGTSVTVSSGGCGGGKVAALKEKVAALKEKVAALKEKVAALKE

These are yes or no findings as the source states them, for the method shown.
